Laboratory results: US20170101469A1 (FOURTH MILITARY MEDICAL UNIVERSITY, published 2017)
These are yes or no findings as the source states them, for the method shown. Some results given as binding are weak or reduced against the parent protein; the word gives no strength.

Target: T1, human CD147 antigen (human, UniProt P35613-2 22-205, limits assumed)
T1 sequence (looked up): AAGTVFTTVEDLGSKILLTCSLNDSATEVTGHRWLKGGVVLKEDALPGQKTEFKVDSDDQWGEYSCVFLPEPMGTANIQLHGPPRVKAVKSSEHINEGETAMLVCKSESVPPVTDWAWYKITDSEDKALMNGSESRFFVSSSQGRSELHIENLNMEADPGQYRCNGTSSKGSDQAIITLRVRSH
Experiment: SPR, ProteOn XPR36, antibody immobilised, CD147 as analyte

B1: HAb18 (antibody, V domains shown)
VH: EVKLEESGGGLVQPGGSMKLSCVASGFTFSDAWMDWVRQSPEKGLEWVAEIRSKANNHAPYYTESVKGRFTISRDDSKSIIYLQMNNLRAEDTGIYYCTRDSTATHWGQGT
VL: SIVMTQTPTFLVVSAGDRVTITCKASQSVINDVAWYQQKPGQSPKLLIFYASNRNTGVPDRFTGSGYGTDFTFTISTVQAEDLAVYFCQQDYSPPFTFGSGTKLEIKR
notes: Murine monoclonal antibody from hybridoma CGMCC NO; 0426; The variable domains are tied to HAb18 through cHAb18, whose variable domains are 'derived from HAb18'; also called original mouse antibody HAb18; anti-CD147 murine monoclonal antibody HAb18
With B1 the binding was “binds”.
